According to publication PMC9616950, “A toxin-deformation dependent inhibition mechanism in the T7SS toxin-antitoxin system of Gram-positive bacteria” (Nature Communications, 2022):

Molecular target: His-YezG (His-SUMO-tagged YezG) (Bacillus subtilis)
Experiment: pull-down; His-SUMO-tagged protein on Ni-NTA beads with untagged protein (0.16 mM : 0.2 mM); 25 mM Tris-HCl pH 8.0, 1 M NaCl, 24 °C, 30 min; Coomassie-stained SDS-PAGE; both purified

B1: YeeF_(508-555) (domain or fragment, UniProt O31506 508-555)
chain: VKYGEHFARWSRKKVLKPNIIYKTKEGYTYTTDNYGRITSVKADLQLG
**Q.** For B1, which binding is on record?
**A.** binds

B2: YeeF_(556-669) (domain or fragment, UniProt O31506 556-669)
chain: EAKRNQYAQTNAGKPQDRKPDDDGGHLIATQFKGSGQFDNIVPMNSQINRSGGKWYEMEQEWAKALSKKPPKKVAVQIEPVYSGDSLRPSYFDVTYKIGSRKEISVSIKNQPGG
**Q.** How did the binding turn out when B2 was run?
**A.** binds

These are yes or no findings as the source states them, for the method shown. Binding calls can cover weak binding; strength is not graded here.
